Reference: the supplement of paper PMC12282887

Tested on: Escherichia coli BW25113
Test: growth (OD600 area under curve, 8 h) (OD600 x h); higher = more growth
Method: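 E. coli BW25113 reporter strains (wild type, ΔmarA, ΔsoxS, Δrob, each carrying one of 8 lux reporter plasmids) were grown in 40 µl LB in 384-well plates at 37°C, 800 rpm, with each compound at 4 two-fold concentrations, in biological duplicates. Growth is the baseline-corrected OD600 area under the curve over 8 h (0-8 h WT, 1-9 h deletion strains).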

CC[n+]1c(-c2ccccc2)c2cc(N)ccc2c2ccc(N)cc21 [Ethidiumbromide]
growth
Settings	reporter plasmid: EVC	reporter plasmid: acrABp	reporter plasmid: marRABp	reporter plasmid: micFp	reporter plasmid: ompFp	reporter plasmid: robp	reporter plasmid: soxSp	reporter plasmid: tolCp
24.6 µg/ml, genetic background: wild type	3.15	2.62	3.26	3.03	2.64	3.13	3.09	3.13
24.6 µg/ml, genetic background: ΔmarA	3.37	4.02	3.61	3.06	3.34	3.69	3.1	2.81
24.6 µg/ml, genetic background: Δrob	2.99	2.94	3.05	2.9	2.4	2.61	3.05	3.01
24.6 µg/ml, genetic background: ΔsoxS	3.25	3.23	3.15	2.86	3.16	2.93	3.16	3.03
49.3 µg/ml, genetic background: wild type	3.01	2.18	2.58	2.817	2.24	2.71	2.93	2.75
49.3 µg/ml, genetic background: ΔmarA	2.8	3.34	3.006	2.85	3.02	3.37	2.8	2.475
49.3 µg/ml, genetic background: Δrob	2.72	2.29	2.53	2.79	1.92	2.05	2.86	2.71
49.3 µg/ml, genetic background: ΔsoxS	3.05	2.76	2.61	2.57	2.58	2.39	2.75	2.94
98.6 µg/ml, genetic background: wild type	2.5	1.88	2.13	2.29	1.89	2.36	2.67	2.22
98.6 µg/ml, genetic background: ΔmarA	1.99	2.17	2.34	2.22	2.06	2.58	2.5	1.79
98.6 µg/ml, genetic background: Δrob	2.33	1.85	1.69	1.96	1.2	1.47	2.44	1.84
98.6 µg/ml, genetic background: ΔsoxS	2.46	2.23	2.47	1.87	1.75	1.71	2.18	2.57
197.1 µg/ml, genetic background: wild type	0.531	-0.307	0.162	0.237	0.0897	0.139	0.8144	0.715
197.1 µg/ml, genetic background: ΔmarA	0.151	-0.104	-0.047	0.112	-0.12	-0.0125	0.333	-0.000135
197.1 µg/ml, genetic background: Δrob	-0.0388	-0.0215	-0.0264	-0.0746	-0.0831	-0.0599	0.277	0.0548
197.1 µg/ml, genetic background: ΔsoxS	0.348	-0.0331	0.00222	-0.0598	0.0216	-0.0689	-0.0182	0.374

CNC(C)C1CCC(N)C(OC2C(N)CC(N)C(OC3OCC(C)(O)C(NC)C3O)C2O)O1 (stereo not given) [Gentamicin]
growth
Settings	reporter plasmid: EVC	reporter plasmid: acrABp	reporter plasmid: marRABp	reporter plasmid: micFp	reporter plasmid: ompFp	reporter plasmid: robp	reporter plasmid: soxSp	reporter plasmid: tolCp
0.13 µg/ml, genetic background: wild type	3.02	3.39	3.442	3.04	3.13	3.32	3	3.08
0.13 µg/ml, genetic background: ΔmarA	3.4	4.29	3.83	3.49	3.59	4.07	3.25	3.22
0.13 µg/ml, genetic background: Δrob	3.12	2.92	3.43	3.1	2.81	2.76	3.02	3.2
0.13 µg/ml, genetic background: ΔsoxS	3.28	3.34	3.29	2.9	3.22	3.44	3.26	3.15
0.26 µg/ml, genetic background: wild type	2.723	3.1	3.19	2.44	2.67	2.99	2.45	2.96
0.26 µg/ml, genetic background: ΔmarA	2.97	4.07	3.57	3.09	3.08	3.79	2.8	2.93
0.26 µg/ml, genetic background: Δrob	2.7	2.65	3.05	2.85	2.44	2.57	2.78	2.96
0.26 µg/ml, genetic background: ΔsoxS	2.96	3.08	2.92	2.53	2.99	3.07	3	2.97
0.52 µg/ml, genetic background: wild type	1.64	1.55	2.35	0.859	0.188	1.4	1.67	2.58
0.52 µg/ml, genetic background: ΔmarA	1.71	2.65	2.54	2.44	2.04	2.46	1.51	2.17
0.52 µg/ml, genetic background: Δrob	2.02	1.44	1.74	1.81	0.592	0.873	1.49	2.14
0.52 µg/ml, genetic background: ΔsoxS	2.42	1.9	1.15	1.66	1.34	2.73	2.12	1.54
1 µg/ml, genetic background: wild type	-0.298	0.0799	0.148	0.0634	0.075	0.113	0.1216	0.177
1 µg/ml, genetic background: ΔmarA	-0.0151	0.0108	-0.0236	-0.0273	-0.0567	-0.00984	-0.0191	-0.0744
1 µg/ml, genetic background: Δrob	-0.0875	-0.037	-0.024	-0.0935	-0.0954	-0.00174	0.0165	-0.00111
1 µg/ml, genetic background: ΔsoxS	0.0227	-0.0541	0.0245	0.00125	0.0342	0.0147	0.044	0.0123

CC(C)Cc1ccc(C(C)C(=O)O)cc1 (stereo not given) [Ibuprofen]
growth
Settings	reporter plasmid: EVC	reporter plasmid: acrABp	reporter plasmid: marRABp	reporter plasmid: micFp	reporter plasmid: ompFp	reporter plasmid: robp	reporter plasmid: soxSp	reporter plasmid: tolCp
12.9 µg/ml, genetic background: wild type	2.97	2.73	3.14	3.04	2.81	3.193	2.958	3.13
12.9 µg/ml, genetic background: ΔmarA	3.55	4.22	3.7	3.37	3.46	3.88	2.99	2.93
12.9 µg/ml, genetic background: Δrob	2.82	2.73	3.21	3.33	2.38	2.56	2.92	2.85
12.9 µg/ml, genetic background: ΔsoxS	2.77	2.85	2.92	2.5	2.64	2.93	3.06	2.82
25.8 µg/ml, genetic background: wild type	2.77	2.65	3.14	2.81	2.74	2.98	2.643	2.84
25.8 µg/ml, genetic background: ΔmarA	3.33	4.05	3.3	3.15	2.9	2.86	2.82	2.9
25.8 µg/ml, genetic background: Δrob	2.75	3.17	3.29	3.03	2.31	2.53	2.75	2.8
25.8 µg/ml, genetic background: ΔsoxS	2.7	2.79	2.94	2.49	2.7	2.98	2.9	2.74
51.6 µg/ml, genetic background: wild type	2.85	2.66	3.31	2.99	2.98	3.18	2.86	3.08
51.6 µg/ml, genetic background: ΔmarA	3.63	4.41	4.03	3.42	3.44	4.04	3.25	3
51.6 µg/ml, genetic background: Δrob	2.75	2.78	3.25	3.1	2.77	2.68	2.81	2.92
51.6 µg/ml, genetic background: ΔsoxS	2.78	2.94	3.1	2.44	2.81	3.13	2.76	2.78
103.1 µg/ml, genetic background: wild type	2.67	2.79	3.27	2.67	2.9	3.05	2.48	2.76
103.1 µg/ml, genetic background: ΔmarA	3.48	3.79	3.35	3.14	2.97	4	3.007	3.02
103.1 µg/ml, genetic background: Δrob	2.48	3.23	3.58	3.06	2.4	2.54	2.74	2.92
103.1 µg/ml, genetic background: ΔsoxS	2.54	3.01	2.98	2.24	2.57	2.96	2.53	2.59

C[C@H](CCC(=O)O)[C@H]1CC[C@H]2[C@@H]3CC[C@@H]4C[C@H](O)CC[C@]4(C)[C@H]3CC[C@]12C [Lithocholic acid]
growth
Settings	reporter plasmid: EVC	reporter plasmid: acrABp	reporter plasmid: marRABp	reporter plasmid: micFp	reporter plasmid: ompFp	reporter plasmid: robp	reporter plasmid: soxSp	reporter plasmid: tolCp
23.5 µg/ml, genetic background: wild type	2.79	2.68	2.97	3.31	2.96	2.73	2.58	2.74
23.5 µg/ml, genetic background: ΔmarA	3.1	3.67	3.09	3.26	2.89	3.55	3.06	2.91
23.5 µg/ml, genetic background: Δrob	3.08	2.78	3.04	2.94	2.67	2.6136	3.03	3.43
23.5 µg/ml, genetic background: ΔsoxS	3.31	3.82	3.66	2.85	2.8855	3.25	3.31	3.25
47.1 µg/ml, genetic background: wild type	2.48	2.53	2.76	2.79	2.81	2.83	2.62	2.556
47.1 µg/ml, genetic background: ΔmarA	3.13	3.34	3.07	2.88	2.97	3.28	3.07	2.8
47.1 µg/ml, genetic background: Δrob	2.79	2.65	2.84	3.04	2.21	2.49	2.76	3.06
47.1 µg/ml, genetic background: ΔsoxS	3.17	3.71	2.75	2.74	2.74	2.89	3.41	3.23
94.1 µg/ml, genetic background: wild type	2.49	2.16	2.63	2.58	2.93	2.78	2.28	2.58
94.1 µg/ml, genetic background: ΔmarA	3	3.84	3.5	2.82	2.91	3.52	2.88	2.96
94.1 µg/ml, genetic background: Δrob	2.69	3.19	3.17	2.98	2.62	2.91	2.93	3.27
94.1 µg/ml, genetic background: ΔsoxS	3.63	3.47	3.16	3.44	3.48	3.38	3.26	3.61
188.3 µg/ml, genetic background: wild type	2.54	2.4641	2.7	2.71	2.49	2.91	2.56	2.44
188.3 µg/ml, genetic background: ΔmarA	2.91	3.86	3.42	2.82	3.41	3.58	2.96	2.93
188.3 µg/ml, genetic background: Δrob	2.68	2.8	2.83	2.95	2.71	2.87	2.74	2.74
188.3 µg/ml, genetic background: ΔsoxS	3.48	3.25	2.88	3.1	2.88	3.09	3.01	3.39

C[C@@H](O)[C@H]1C(=O)N2C(C(=O)O)=C(S[C@@H]3CN[C@H](C(=O)N(C)C)C3)[C@H](C)[C@H]12 [Meropenem]
growth
Settings	reporter plasmid: EVC	reporter plasmid: acrABp	reporter plasmid: marRABp	reporter plasmid: micFp	reporter plasmid: ompFp	reporter plasmid: robp	reporter plasmid: soxSp	reporter plasmid: tolCp
0.011 µg/ml, genetic background: wild type	2.92	3.28	3.419	3.13	3.27	3.19	2.9	3.12
0.011 µg/ml, genetic background: ΔmarA	3.33	4.35	3.86	3.05	3.74	4.01	2.96	3.06
0.011 µg/ml, genetic background: Δrob	2.89	3.77	3.62	3.31	2.75	3.06	3.12	3.3
0.011 µg/ml, genetic background: ΔsoxS	3.12	3.16	3.43	2.77	3.3	3.71	3.24	3.11
0.022 µg/ml, genetic background: wild type	2.712	2.74	2.82	2.64	2.69	2.24	1.73	2.66
0.022 µg/ml, genetic background: ΔmarA	2.9	3.48	3.29	2.99	3.21	3.4	2.63	2.65
0.022 µg/ml, genetic background: Δrob	2.53	2.86	3.04	2.97	2.26	2.8	2.44	3.14
0.022 µg/ml, genetic background: ΔsoxS	2.94	3.07	2.66	2.62	2.82	3.03	2.79	2.71
0.044 µg/ml, genetic background: wild type	1.43	0.916	0.702	0.648	0.555	0.217	0.178	0.93
0.044 µg/ml, genetic background: ΔmarA	0.967	0.885	0.509	2.02	1.97	1.19	0.254	0.523
0.044 µg/ml, genetic background: Δrob	0.798	0.561	0.685	0.67	0.362	0.694	0.313	1.07
0.044 µg/ml, genetic background: ΔsoxS	1.86	1.76	1.28	2.24	2.32	1.98	2.05	1.48
0.088 µg/ml, genetic background: wild type	-0.0481	-0.456	0.0867	0.0349	0.0106	0.0556	0.0618	0.12
0.088 µg/ml, genetic background: ΔmarA	-0.0251	-0.0383	0.0209	-0.0509	-0.0774	-0.032	-0.0187	-0.116
0.088 µg/ml, genetic background: Δrob	-0.126	0.025	-0.013	-0.0418	-0.0297	0.0239	-0.00892	0.00691
0.088 µg/ml, genetic background: ΔsoxS	-0.0187	0.0101	0.109	-0.0294	0.0543	-0.0435	-0.00319	-0.0173

Values are raw readings; no control value is given beside them.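 Maximum concentrations were near the MIC for antimicrobials, 500 µM for most other compounds, and as high as 1 mM for known inducer-like compounds. Deletion strains began with a tenfold smaller inoculum, and wells with growth under 10% of the overall median counted as non-growing.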
